In patent US20210130459A1 (YISSUM RESEARCH DEVELOPMENT COMPANY OF THE HEBREW …, published 2021):
No constants are given. Whether binding was seen depends on the method and setting. Some binding calls cover weakened binding; strength is not graded here.

Experiments:
[1] = target: Cynomolgus (Cyno)-Nectin-4 expressed on CHO cells (cynomolgus); test: FACS titration (20-0.01 nM) on CHO cells transfected with Cynomolgus Nectin-4
[2] = target: Cynomolgus (Cyno)-Nectin-4 expressed on CHO cells (cynomolgus); test: FACS titration on CHO cells transfected with Cyno-Nectin-4

Binder | binding [1] | binding [2]
monoclonal antibody hNec4.05 (antibody, IgG1, V domains shown, also called Nectin4.05; Clone 5) VH: QVQLQQSGPELVKPGASVRISCKASGYTFTTYYIHWVKQRPGQGLEWIGWIYPGNVNTKNNEKFKVKATLTADKSSSTAYMQLSSLTSEDSAVYFCARSNPYVMDYWGQGTSVTVSS VL: SIVMTQTPKFLLVSAGDRVTITCKASQSVSNDVAWYQQKPGQSPKLLIYYASNRYTGVPDRFTGSGYGTDFTFTISAVQAEDLAVYFCQQDYSSPYTFGGGTKLEIK | binds | binds
monoclonal antibody hNec4.11 (antibody, V domains shown, also called Nectin4.11; clone 11) VH: QVQLQQSGPELVKPETSVKISCKASGYTFTSYYIHWVKQRPGQGLEWIGWIYPGNVNTKYNERFKGKATLTADKSSNTAHMQLTSLTSEDSAVYFCARSNPYVMDYWGQGTSVTVSS VL: SIVMTQTPKFLLVSAGDRVTITCKASQSVNNDVAWYQQKPGLSPELLMYYASNRFTGVPDRFTGSGYGTDFTFTISSVQAEDLAIYFCQQAYRSPYTFGGGTKLEIQ | binds | binds
